Patent US11884675B2, “Heterocyclic compounds as triggering receptor expressed on myeloid cells 2 agonists and methods of use” (AMGEN INC., priority 2020, dated 2024)
At least one structure is not confirmed: it was looked up by name or label, or the drawing left a doubt.

The chains behind the UniProt entries cited, without tags or fusion partners. Residues count along the entry.
UniProt Q9NZC2, 19-230: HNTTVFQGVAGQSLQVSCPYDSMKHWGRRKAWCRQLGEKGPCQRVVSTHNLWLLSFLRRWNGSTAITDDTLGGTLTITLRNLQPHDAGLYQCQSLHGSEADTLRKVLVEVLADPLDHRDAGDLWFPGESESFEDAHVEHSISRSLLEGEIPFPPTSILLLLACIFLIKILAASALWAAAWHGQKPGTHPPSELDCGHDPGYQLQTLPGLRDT

Biological target: hTREM2 (Homo sapiens, UniProt Q9NZC2)
Assay: TREM2 activity by cellular Syk phosphorylation (AlphaScreen/AlphaLISA) in TREM2/DAP12-HEK cells, used for Examples 1-305
Assay type: cell-based
Parameters: expressed in transfected cells
Conditions: HEK293 Cells
Text: In vitro Measurement of Triggering Receptor Expressed on Myeloid Cells 2 activity using cellular phosphorylation of Spleen Tyrosine Kinase (“Syk”) Assays used for Examples 1-305
Pharmacological measurements of TREM2 signaling through DAP12 were made with TREM2 and DAP12 overexpressing HEK293 cells stable cell lines that had been single-cell cloned (“TREM2/DAP12-HEK”). The readout of the TREM2 signaling utilized Perkin Elmer AlphaScreen/AlphaLISA technology monitoring the phosphorylation levels of the Syk kinase. TREM2/DAP12-HEK cell lines were cultured in DMEM-F12 (Corning 10-092-CM) supplemented with 1X Penicillin/Streptomycin (Corning 30-002-CI), 1X GlutaMAX (Gibco 35050-061), and 10% Fetal Bovine Serum (Life Technologies 10099) referred to as “HEK Culture Medium”. Suspensions of TREM2/DAP12-HEK cells were prepared in HEK Culture Medium and dispensed into 384-well poly-D-lysine coated microplates (Corning 354661) at a density of 20,000 cells/well using a Multidrop Combi peristaltic microplate dispenser (Thermo), 25 μL volume of cell suspension/well. […] Once the final incubation was completed, an AlphaScreen signal was acquired from the donor and acceptor beads using an Envision high throughput multi-modal microplate reader (Perkin Elmer) calibrated to the plate type with the AlphaScreen mirror and filter-set in 384-well mode, 680 nanometer excitation wavelength. […]

| SMILES | hTREM2 Emax |
| --- | --- |
| Cc1nc2nc(N3CCO[C@@H](c4cnn(C)c4)C3)nc(N3CCC(F)(F)CC3)c2nc1C [Example 66, 4-(4,4-difluoro-1-piperidinyl)-6,7-dimethyl-2-((2S)-2-(1-methyl-1H-pyrazol-4-yl)-4-morpholinyl)pteridine] | ++ (Emax>100 and ≤150) |
| Cc1cc([C@@H]2C[C@@H](c3nc(-c4ccc(F)cc4F)c4ccc(C)nc4n3)CCO2)ccn1 (single isomer, unassigned) [Example 221] | +++ (Emax>150 and ≤250) |
